# Measurements: the supplement of paper PMC8728848
# The other results are listed elsewhere or left out.
# B1: AT5G24760(45) (Arabidopsis thaliana), Q8LEB2 (protein)
# chain: MSASSSSFEQPQVITCNAAVAWRAGEPLVMEEVEVSPPQPLEIRIKVVCTSLCRSDLSAWESQSLLPRIFGHEAAGIVESIGEGVTEFEKGDHVLAVFTGECGSCRHCISGKSNMCQVLGMERKGLMHSDQKTRFSIKGKPVYHYCAVSSFSEYTVVHSGCAVKVDPLAPLHKICLLSCGVAAGLGAAWNVADVQKGSSVVIFGLGTVGLSVAQGAKLRGAAQILGVDINPAKAEQAKTFGVTDFINSNDLSEPIPQVIKRMTGGGADFSFECVGDTGIATTALQSCSDGWGMTVTLGVPKAKPEVSAHYGLFLSGKSLKGTLFGGWKPKSDLPSLIDKYMNKEIMIDEFITHNLSFDEINKAFVLMREGKCLRCVLHMPK
# Experiments:
# Assay in all cases: glycan array binding signal (z-score within array); higher = stronger binding
# Settings in all cases: glycan notation: IUPAC condensed, linker removed
# [1] = biological target: Neu5Ac(a2-6)Gal
# Summary of the method: (§1)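 The Consortium for Functional Glycomics database supplied 3228 glycan arrays, of which those lacking an available protein sequence were dropped. The binding signal, a within-array Z-score, was averaged across arrays of the same protein sequence and across linkers. Negative scores can be read as non-binding.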
# [2] = biological target: Neu5Ac(a2-6)Gal(b1-3)GlcNAc(b1-3)[Gal(b1-4)GlcNAc(b1-6)]Gal(b1-4)Glc
# Summary of the method: as §1
# [3] = biological target: Neu5Ac(a2-6)Gal(b1-4)Glc
# Summary of the method: as §1
# [4] = biological target: Neu5Ac(a2-6)Gal(b1-4)GlcNAc
# Summary of the method: as §1
# [5] = biological target: Neu5Ac(a2-6)Gal(b1-4)GlcNAc(b1-2)Man
# Summary of the method: as §1
# [6] = biological target: Neu5Ac(a2-6)Gal(b1-4)GlcNAc(b1-2)Man(a1-3)Man(b1-4)GlcNAc(b1-4)GlcNAc
# Summary of the method: as §1
# [7] = biological target: Neu5Ac(a2-6)Gal(b1-4)GlcNAc(b1-2)Man(a1-3)[Gal(b1-4)GlcNAc(b1-2)Man(a1-6)]Man(b1-4)GlcNAc(b1-4)GlcNAc
# Summary of the method: as §1
# [8] = biological target: Neu5Ac(a2-6)Gal(b1-4)GlcNAc(b1-2)Man(a1-3)[GlcNAc(b1-2)Man(a1-6)]Man(b1-4)GlcNAc(b1-4)GlcNAc
# Summary of the method: as §1
# [9] = biological target: Neu5Ac(a2-6)Gal(b1-4)GlcNAc(b1-2)Man(a1-3)[GlcNAc(b1-4)][Neu5Ac(a2-6)Gal(b1-4)GlcNAc(b1-2)Man(a1-6)]Man(b1-4)GlcNAc(b1-4)GlcNAc
# Summary of the method: as §1
# [10] = biological target: Neu5Ac(a2-6)Gal(b1-4)GlcNAc(b1-2)Man(a1-3)[Man(a1-6)]Man(b1-4)GlcNAc(b1-4)GlcNAc
# Summary of the method: as §1
# [11] = biological target: Neu5Ac(a2-6)Gal(b1-4)GlcNAc(b1-2)Man(a1-3)[Neu5Ac(a2-3)Gal(b1-4)GlcNAc(b1-2)Man(a1-6)]Man(b1-4)GlcNAc(b1-4)GlcNAc
# Summary of the method: as §1
# [12] = biological target: Neu5Ac(a2-6)Gal(b1-4)GlcNAc(b1-2)Man(a1-3)[Neu5Ac(a2-6)Gal(b1-4)GlcNAc(b1-2)Man(a1-6)]Man(b1-4)GlcNAc(b1-4)GlcNAc
# Summary of the method: as §1
# [13] = biological target: Neu5Ac(a2-6)Gal(b1-4)GlcNAc(b1-2)Man(a1-3)[Neu5Ac(a2-6)Gal(b1-4)GlcNAc(b1-2)Man(a1-6)]Man(b1-4)GlcNAc(b1-4)[Fuc(a1-6)]GlcNAc
# Summary of the method: as §1
# [14] = biological target: Neu5Ac(a2-6)Gal(b1-4)GlcNAc(b1-2)Man(a1-6)Man(b1-4)GlcNAc(b1-4)GlcNAc
# Summary of the method: as §1
# [15] = biological target: Neu5Ac(a2-6)Gal(b1-4)GlcNAc(b1-2)Man(a1-6)[Gal(b1-4)GlcNAc(b1-2)Man(a1-3)]Man(b1-4)GlcNAc(b1-4)GlcNAc
# Summary of the method: as §1
# [16] = biological target: Neu5Ac(a2-6)Gal(b1-4)GlcNAc(b1-2)Man(a1-6)[GlcNAc(b1-2)Man(a1-3)]Man(b1-4)GlcNAc(b1-4)GlcNAc
# Summary of the method: as §1
# [17] = biological target: Neu5Ac(a2-6)Gal(b1-4)GlcNAc(b1-2)Man(a1-6)[Man(a1-3)]Man(b1-4)GlcNAc(b1-4)GlcNAc
# Summary of the method: as §1
# [18] = biological target: Neu5Ac(a2-6)Gal(b1-4)GlcNAc(b1-2)[Neu5Ac(a2-6)Gal(b1-4)GlcNAc(b1-4)]Man(a1-3)[GlcNAc(b1-4)][Neu5Ac(a2-6)Gal(b1-4)GlcNAc(b1-2)[Neu5Ac(a2-6)Gal(b1-4)GlcNAc(b1-6)]Man(a1-6)]Man(b1-4)GlcNAc(b1-4)GlcNAc
# Summary of the method: as §1
# [19] = biological target: Neu5Ac(a2-6)Gal(b1-4)GlcNAc(b1-2)[Neu5Ac(a2-6)Gal(b1-4)GlcNAc(b1-4)]Man(a1-3)[GlcNAc(b1-4)][Neu5Ac(a2-6)Gal(b1-4)GlcNAc(b1-4)Man(a1-6)]Man(b1-4)GlcNAc(b1-4)GlcNAc
# Summary of the method: as §1
# [20] = biological target: Neu5Ac(a2-6)Gal(b1-4)GlcNAc(b1-2)[Neu5Ac(a2-6)Gal(b1-4)GlcNAc(b1-6)]Man(a1-6)[Neu5Ac(a2-6)Gal(b1-4)GlcNAc(b1-2)Man(a1-3)][GlcNAc(b1-4)]Man(b1-4)GlcNAc(b1-4)GlcNAc
# Summary of the method: as §1
# [21] = biological target: Neu5Ac(a2-6)Gal(b1-4)GlcNAc(b1-3)Gal(b1-3)GlcNAc
# Summary of the method: as §1
# [22] = biological target: Neu5Ac(a2-6)Gal(b1-4)GlcNAc(b1-3)Gal(b1-4)GlcNAc
# Summary of the method: as §1
# [23] = biological target: Neu5Ac(a2-6)Gal(b1-4)GlcNAc(b1-3)Gal(b1-4)GlcNAc(b1-2)Man(a1-3)[Neu5Ac(a2-6)Gal(b1-4)GlcNAc(b1-3)Gal(b1-4)GlcNAc(b1-2)Man(a1-6)]GalNAc
# Summary of the method: as §1
# [24] = biological target: Neu5Ac(a2-6)Gal(b1-4)GlcNAc(b1-3)Gal(b1-4)GlcNAc(b1-3)Gal(b1-4)GlcNAc
# Summary of the method: as §1
# [25] = biological target: Neu5Ac(a2-6)Gal(b1-4)GlcNAc(b1-3)Gal(b1-4)GlcNAc(b1-3)Gal(b1-4)GlcNAc(b1-2)Man(a1-3)[Neu5Ac(a2-6)Gal(b1-4)GlcNAc(b1-3)Gal(b1-4)GlcNAc(b1-3)Gal(b1-4)GlcNAc(b1-2)Man(a1-6)]GalNAc
# Summary of the method: as §1
# [26] = biological target: Neu5Ac(a2-6)Gal(b1-4)GlcNAc(b1-3)Gal(b1-4)GlcNAc(b1-3)GalNAc
# Summary of the method: as §1
# [27] = biological target: Neu5Ac(a2-6)Gal(b1-4)GlcNAc(b1-3)Gal(b1-4)GlcNAc(b1-3)[Neu5Ac(a2-6)Gal(b1-4)GlcNAc(b1-3)Gal(b1-4)GlcNAc(b1-6)]GalNAc
# Summary of the method: as §1
# [28] = biological target: Neu5Ac(a2-6)Gal(b1-4)GlcNAc(b1-3)Gal(b1-4)GlcNAc(b1-6)[Gal(b1-3)]GalNAc
# Summary of the method: as §1
# [29] = biological target: Neu5Ac(a2-6)Gal(b1-4)GlcNAc(b1-3)Gal(b1-4)[Fuc(a1-3)]GlcNAc(b1-3)Gal(b1-4)[Fuc(a1-3)]GlcNAc
# Summary of the method: as §1
# [30] = biological target: Neu5Ac(a2-6)Gal(b1-4)GlcNAc(b1-3)GalNAc
# Summary of the method: as §1
# [31] = biological target: Neu5Ac(a2-6)Gal(b1-4)GlcNAc(b1-3)[Neu5Ac(a2-6)Gal(b1-4)GlcNAc(b1-6)]GalNAc
# Summary of the method: as §1
# [32] = biological target: Neu5Ac(a2-6)Gal(b1-4)GlcNAc(b1-6)GalNAc
# Summary of the method: as §1
# [33] = biological target: Neu5Ac(a2-6)Gal(b1-4)GlcNAc(b1-6)[Gal(b1-3)GlcNAc(b1-3)]Gal(b1-4)Glc
# Summary of the method: as §1
# [34] = biological target: Neu5Ac(a2-6)Gal(b1-4)GlcNAc(b1-6)[Gal(b1-3)]GalNAc
# Summary of the method: as §1
# [35] = biological target: Neu5Ac(a2-6)Gal(b1-4)GlcNAc6S
# Summary of the method: as §1
# [36] = biological target: Neu5Ac(a2-6)GalNAc
# Summary of the method: as §1
# [37] = biological target: Neu5Ac(a2-6)GalNAc(b1-4)GlcNAc
# Summary of the method: as §1
# [38] = biological target: Neu5Ac(a2-6)GalNAc(b1-4)GlcNAc6S
# Summary of the method: as §1
binder,measurement,setting,value
B1,glycan array binding signal (z-score),[1],-0.781
same,glycan array binding signal (z-score),[2],-0.504
same,glycan array binding signal (z-score),[3],-0.362
same,glycan array binding signal (z-score),[4],-0.075
same,glycan array binding signal (z-score),[5],-0.402
same,glycan array binding signal (z-score),[6],-0.824
same,glycan array binding signal (z-score),[7],-1.29
same,glycan array binding signal (z-score),[8],-1
same,glycan array binding signal (z-score),[9],-0.951
same,glycan array binding signal (z-score),[10],-0.703
same,glycan array binding signal (z-score),[11],-0.094
same,glycan array binding signal (z-score),[12],-0.223
same,glycan array binding signal (z-score),[13],-0.446
same,glycan array binding signal (z-score),[14],-0.961
same,glycan array binding signal (z-score),[15],-0.902
same,glycan array binding signal (z-score),[16],-0.952
same,glycan array binding signal (z-score),[17],-0.271
same,glycan array binding signal (z-score),[18],-0.308
same,glycan array binding signal (z-score),[19],-1.01
same,glycan array binding signal (z-score),[20],-0.502
same,glycan array binding signal (z-score),[21],0.751
same,glycan array binding signal (z-score),[22],-0.877
same,glycan array binding signal (z-score),[23],0.016
same,glycan array binding signal (z-score),[24],-1.08
same,glycan array binding signal (z-score),[25],-0.325
same,glycan array binding signal (z-score),[26],-1.39
same,glycan array binding signal (z-score),[27],-0.602
same,glycan array binding signal (z-score),[28],-0.499
same,glycan array binding signal (z-score),[29],-0.595
same,glycan array binding signal (z-score),[30],1.66
same,glycan array binding signal (z-score),[31],-1.08
same,glycan array binding signal (z-score),[32],0.599
same,glycan array binding signal (z-score),[33],0.133
same,glycan array binding signal (z-score),[34],-0.895
same,glycan array binding signal (z-score),[35],0.165
same,glycan array binding signal (z-score),[36],0.118
same,glycan array binding signal (z-score),[37],-0.345
same,glycan array binding signal (z-score),[38],-0.585

# Fetched one by one from the entries so far, 2 records:
binder,measurement,setting,value
B1,glycan array binding signal (z-score),[24],-1.08
same,glycan array binding signal (z-score),[16],-0.952
